Reference: patent US8846329B1, “Microorganisms for producing organic acids” (Wisconsin Alumni Research Foundation, priority 2012, dated 2014)

Test system: Synechococcus sp. PCC 7002
Experiment: Minimum inhibitory concentration of organic acids / growth inhibition
Assay type: cell-based
Conditions: solid medium
Text: One aspect of the increased tolerance to organic acids is an increase in the minimal inhibitory concentration (MIC) of a particular organic acid compared to a corresponding microorganism. MIC is the lowest concentration of an agent that will inhibit growth of a microorganism. An MIC can be determined by titrating the agent in the growth medium of the microorganism. The lowest concentration of the agent in which the microorganism is no longer able to grow is the MIC. Methods of culturing microorganisms and of detecting their growth are well known in the art and are not discussed in detail herein.
The minimum inhibitory concentrations (MIC) for PCC 7002, Synechococcus sp. PCC 7942, and Synechocystis sp. PCC 6803 were determined for acrylic acid, 3HP, and propionic acid at a pH of about 8 (Table 1).

C=CC(=O)O [acrylic acid]
Mutation frequency when selecting for growth (50 μM acrylic acid): 7×10^−6 | Mutation frequency when selecting for growth (5 mM acrylic acid): 4×10^−6
